From PMC6945063 (2019)
No constants are given. Whether binding was seen depends on the method and setting. In cells and extracts the contact can be indirect. Here binding means that the protein was enriched with, or labelled near, the bait; the list need not be complete.

The chains behind the UniProt entries cited, without tags or fusion partners. Where a name states a change or a piece, a line headed by the entry shows the natural chain unless it says otherwise. A line that says so, or that is headed by a name, gives the form on record, which may keep a tag or linker.
UniProt P60520: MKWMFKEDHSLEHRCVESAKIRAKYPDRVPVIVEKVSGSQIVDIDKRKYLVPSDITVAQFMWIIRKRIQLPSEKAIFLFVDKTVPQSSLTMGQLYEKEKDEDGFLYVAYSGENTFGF
HA‐GABARAP‐L2 S87/88D (P60520, form named): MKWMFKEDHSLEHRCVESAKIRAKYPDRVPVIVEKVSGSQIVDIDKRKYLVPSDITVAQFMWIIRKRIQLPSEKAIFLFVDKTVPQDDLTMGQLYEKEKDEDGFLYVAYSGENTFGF
HA‐GABARAP‐L2 S87/88A (P60520, form named): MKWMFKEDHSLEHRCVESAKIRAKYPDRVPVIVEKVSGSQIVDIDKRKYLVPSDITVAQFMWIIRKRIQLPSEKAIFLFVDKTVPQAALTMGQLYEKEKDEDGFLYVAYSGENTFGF
UniProt Q9UHD2: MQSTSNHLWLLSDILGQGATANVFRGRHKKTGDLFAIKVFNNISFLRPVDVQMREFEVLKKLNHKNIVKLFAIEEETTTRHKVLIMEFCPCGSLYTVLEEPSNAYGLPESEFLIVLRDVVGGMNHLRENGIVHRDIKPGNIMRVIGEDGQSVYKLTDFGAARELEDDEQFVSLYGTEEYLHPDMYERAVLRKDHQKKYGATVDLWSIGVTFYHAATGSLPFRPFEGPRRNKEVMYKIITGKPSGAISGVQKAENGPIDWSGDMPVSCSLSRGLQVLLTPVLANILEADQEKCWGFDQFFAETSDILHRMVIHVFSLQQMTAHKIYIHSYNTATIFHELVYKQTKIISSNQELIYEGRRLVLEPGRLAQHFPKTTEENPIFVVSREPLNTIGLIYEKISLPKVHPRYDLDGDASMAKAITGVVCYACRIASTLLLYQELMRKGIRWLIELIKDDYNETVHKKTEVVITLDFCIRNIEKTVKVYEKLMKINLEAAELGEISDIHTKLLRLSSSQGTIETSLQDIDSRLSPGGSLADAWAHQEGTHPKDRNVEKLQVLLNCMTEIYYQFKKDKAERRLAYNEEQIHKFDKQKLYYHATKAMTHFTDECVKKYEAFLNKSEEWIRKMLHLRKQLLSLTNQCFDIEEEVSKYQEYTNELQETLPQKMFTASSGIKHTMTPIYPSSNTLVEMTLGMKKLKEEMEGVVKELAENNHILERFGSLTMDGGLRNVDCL

How the values were obtained:
Test in all cases: affinity purification with mass spectrometry; HEK293T transfected with HA‐GABARAP‐L2 WT, S87/88A or S87/88D or control plasmid; HA immunoprecipitation in IP Lysis Buffer; label-free quantification against an HA-only IP
HA‐GABARAP‐L2 WT (human) = HA‐GABARAP‐L2 WT (human) (UniProt P60520)
[1] = target: HA‐GABARAP‐L2 S87/88D (human) (UniProt P60520)
[2] = target: HA‐GABARAP‐L2 S87/88A (human) (UniProt P60520)

Measured: binding

Endogenous TBK1 (from UniProt Q9UHD2 1-729) (enzyme)
binds: all assays above
